These are yes or no findings as the source states them, for the method shown. Binding seen in cells or lysates may run through a third protein. Some binding calls cover weakened binding; strength is not graded here.
Biological target: FOXK2 with a C-terminal HA-eDHFR degron, expressed from the endogenous locus (H1-FOXK2-DHFR ESCs) (human (endogenous in H1 ESCs)) (UniProt Q01167)
Assay: co-IP; immunoprecipitation with anti-FOXK2 antibody (Bethyl A301-729A) from whole cell lysates of H1-FOXK2-DHFR ESCs cultured with 10 uM TMP (FOXK2 stable) or without TMP (FOXK2 degraded); Western blot

The chains behind the UniProt entries cited, without tags or fusion partners.
UniProt Q01167: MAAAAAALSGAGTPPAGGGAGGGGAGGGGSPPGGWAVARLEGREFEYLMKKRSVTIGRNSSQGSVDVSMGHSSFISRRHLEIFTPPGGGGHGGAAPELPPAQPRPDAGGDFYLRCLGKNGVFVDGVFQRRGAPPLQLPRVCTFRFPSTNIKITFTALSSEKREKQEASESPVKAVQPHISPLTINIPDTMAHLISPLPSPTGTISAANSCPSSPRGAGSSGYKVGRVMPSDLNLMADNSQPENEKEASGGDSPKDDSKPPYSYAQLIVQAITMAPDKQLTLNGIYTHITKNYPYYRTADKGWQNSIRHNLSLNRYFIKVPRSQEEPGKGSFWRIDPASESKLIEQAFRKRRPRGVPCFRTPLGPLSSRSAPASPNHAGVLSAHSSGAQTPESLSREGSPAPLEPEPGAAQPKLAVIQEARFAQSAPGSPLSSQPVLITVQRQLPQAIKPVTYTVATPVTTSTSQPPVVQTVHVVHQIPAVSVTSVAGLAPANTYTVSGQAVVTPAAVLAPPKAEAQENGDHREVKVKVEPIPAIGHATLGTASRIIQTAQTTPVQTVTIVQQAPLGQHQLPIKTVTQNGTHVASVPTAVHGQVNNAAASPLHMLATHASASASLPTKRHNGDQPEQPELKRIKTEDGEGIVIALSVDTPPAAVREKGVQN
UniProt Q13547: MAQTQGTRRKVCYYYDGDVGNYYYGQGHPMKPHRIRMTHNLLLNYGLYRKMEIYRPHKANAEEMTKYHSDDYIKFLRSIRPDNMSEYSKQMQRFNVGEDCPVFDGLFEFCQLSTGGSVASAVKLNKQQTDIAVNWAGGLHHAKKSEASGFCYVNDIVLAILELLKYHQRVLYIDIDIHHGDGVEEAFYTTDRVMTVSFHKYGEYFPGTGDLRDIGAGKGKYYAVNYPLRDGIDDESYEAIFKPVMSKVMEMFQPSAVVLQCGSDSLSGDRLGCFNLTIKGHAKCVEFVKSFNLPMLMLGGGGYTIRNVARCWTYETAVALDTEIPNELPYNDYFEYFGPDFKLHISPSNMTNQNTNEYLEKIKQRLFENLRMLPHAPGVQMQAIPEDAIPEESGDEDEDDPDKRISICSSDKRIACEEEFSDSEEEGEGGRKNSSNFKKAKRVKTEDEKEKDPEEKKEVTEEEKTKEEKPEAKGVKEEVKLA

binding: binds
Substance: HDAC1 (from UniProt Q13547 1-482)
